Drawing on patent US20090075889A1 (YEDA RESEARCH AND DEVELOPMENT, published 2009), this text covers binding for 5 molecules.

One assay deals with Lamin. The assay can be described thus: yeast two-hybrid, β-galactosidase colour test.
The next assay deals with Cyclin D. The assay can be described thus: yeast two-hybrid, β-galactosidase colour test.

No constants are given. Whether binding was seen depends on the method and setting.

B1: IREN (other)
chain: MSGSQNNDKRQFLLERLLDAVKQCQIRFGGRKEIASDSDSRVTCLCAQFEAVLQHGLKRSRGLALTAAAIKQAAGFASKTETEPVFWYYVKEVLNKHELQRFYSLRHIASDVGRGRAWLRCALNEHSLERYLHMLLADRCRLSTFYEDWSFVMDEERSSMLPTMAAGLNSILFAINIDNKDLNGQSKFAPTVSDLLKESTQNVTSLLKESTQGVSSLFREITASSAVSILIKPEQETDPLPVVSRNVSADAKCKKERKKKKKVTNIISFDDEEDEQNSGDVFKKTPGAGESSEDNSDRSSVNIMSAFESPFGPNSNGSQSSNSWKIDSLSLNGEFGYQKLDVKSIDDEDVDENEDDVYGNSSGRKHRGHSESPEKPLEGNTCLSQMHSWAPLKVLHNDSDILFPVSGVGSYSPADAPLGSLENGTGPEDHVLPDPGLRYSVEASSPGHGSPLSSLLPSASVPESMTISELRQATVAMMNRKDELEEENRSLRNLLDGEMEHSAALRQEVDTLKRKVAEQEERQGMKVQALASYLCYFVRRF
notes: Tested in yeast two-hybrid as a hybrid protein; the fusion partner is not included in the chain; also called IκB REgulator; IREN protein
For B1, the binding entry in the assay with Lamin and with Cyclin D was “no binding” each time.

B2: IREN198-388 (other)
chain: ESTQNVTSLLKESTQGVSSLFREITASSAVSILIKPEQETDPLPVVSRNVSADAKCKKERKKKKKVTNIISFDDEEDEQNSGDVFKKTPGAGESSEDNSDRSSVNIMSAFESPFGPNSNGSQSSNSWKIDSLSLNGEFGYQKLDVKSIDDEDVDENEDDVYGNSSGRKHRGHSESPEKPLEGNTCLSQMHS
notes: Two-hybrid prey construct
Regarding B2, the binding result with Lamin is given as “no binding”.

B3: IREN 10B (other)
chain: MSGSQNNDKRQFLLERLLDAVKQCQIRFGGRKEIASDSDSRVTCLCAQFEAVLQHGLKRSRGLALTAAAIKQAAGFASKTETEPVFWYYVKEVLNKHELQRFYSLRHIASDVGRGRAWLRCALNEHSLERYLHMLLADRCRLSTFYEDWSFVMDEERSSMLPTMAAGLNSILFAINIDNKDLNGQSKFAPTVSDLLKESTQNVTSLLKESTQGVSSLFREITASSAVSILIKPEQETDPLPVVSRNVSADAKCKKERKKKKKVTNIISFDDEEDEQNSGDVFKKTPGAGESSEDNSDRSSVNIMSAFESPFGPNSNGSQSSNSWKIDSLSLNGEFGYQKLDVKSIDDEDVDENEDDVYGNSSGRKHRGHSESPEKPLEGNTCLSQMHSWAPLKVLHNDSDILFPVSGVGSYSPADAPLGSLENGTGPEDHVLPDPGLRYSVEASSPGHGSPLSSLLPSASVPESMTISELRQATVAMMNRKDELEEENRSLRNLLDGEMEHSAALRQEVDTLKRKVAEQEERQGMKVQALARENEVLKVQLKKYVGAVQMLKREGQTAEVPNLWSVDGEVTVAEQKPGEIAEELASSYERKLIEVAEMHGELIEFNERLHRALVAKEALVSQMRQELIDLRGPVPGDLSQTSEDQSLSDFEISNRALINVWIPSVFLRGKAANAFHVYQVYIRIKDDEWNIYRRYTEFRSLHHKLQNKYPQVRAYNFPPKKAIGNKDAKFVEERRKQLQNYLRSVMNKVIQMVPEFAASPKKETLIQLMPFFVDITPPGEPVNSRPKAASRFPKLSRGQPRETRNVEPQSGDL
notes: Splice isoform of IREN; Used as both bait and prey in yeast two-hybrid; also called clone 10B
Regarding B3, the binding entry with Lamin is recorded as “no binding”.

B4: IREN1-197 (protein)
chain: MSGSQNNDKRQFLLERLLDAVKQCQIRFGGRKEIASDSDSRVTCLCAQFEAVLQHGLKRSRGLALTAAAIKQAAGFASKTETEPVFWYYVKEVLNKHELQRFYSLRHIASDVGRGRAWLRCALNEHSLERYLHMLLADRCRLSTFYEDWSFVMDEERSSMLPTMAAGLNSILFAINIDNKDLNGQSKFAPTVSDLLK
Turning to B4, the binding entry with Lamin is reported as “no binding”.

B5: IREN198-541 (other)
chain: ESTQNVTSLLKESTQGVSSLFREITASSAVSILIKPEQETDPLPVVSRNVSADAKCKKERKKKKKVTNIISFDDEEDEQNSGDVFKKTPGAGESSEDNSDRSSVNIMSAFESPFGPNSNGSQSSNSWKIDSLSLNGEFGYQKLDVKSIDDEDVDENEDDVYGNSSGRKHRGHSESPEKPLEGNTCLSQMHSWAPLKVLHNDSDILFPVSGVGSYSPADAPLGSLENGTGPEDHVLPDPGLRYSVEASSPGHGSPLSSLLPSASVPESMTISELRQATVAMMNRKDELEEENRSLRNLLDGEMEHSAALRQEVDTLKRKVAEQEERQGMKVQALASYLCYFVRRF
notes: Two-hybrid prey construct; also called N-terminal deletion mutant of IREN; IRENΔN
For the molecule B5, in the assay with Lamin, the binding entry is recorded as “no binding”.
